No constants are given. Whether binding was seen depends on the method and setting. Some binding calls cover weakened binding; strength is not graded here.
Columns and labels:
[1] = target: His-tagged CIB2, human (TEV protease recognition site and His tag kept) (human) (UniProt O75838); test: SPR; His-tagged CIB2 captured by its His tag on a His-cap chip, then blocked via amine coupling; peptides injected (7.5 µM; α7B_M titrated 230 nM-30 µM); 20 mM HEPES pH 7.5, 150 mM KCl, 1 mM DTT, 1 mM Mg2+, 2 mM Ca2+, 50 µM EDTA, 0.005% Tween; bivalent analyte model and steady state analysis; apparent constants; both purified
[2] = target: Calcium- and Integrin-Binding protein 2 (CIB2), human, untagged (human) (UniProt O75838); test: SPR; untagged CIB2 immobilised at low levels (100-200 RU) on a COOH5 chip via amine coupling; 30 µM peptides injected; 20 mM HEPES pH 7.5, 150 mM KCl, 1 mM DTT, 1 mM Mg2+, 2 mM Ca2+, 50 µM EDTA, 0.005% Tween; both purified
[3] = target: Calcium- and Integrin-Binding protein 2 (CIB2), human, untagged (human) (UniProt O75838); test: cross-linking; 10 µM CIB2 incubated with 5, 10 or 20 µM peptide, then 50-fold molar excess of DSBU for 20 min at room temperature; 20 mM HEPES pH 7.5, 1 mM DTT, 1 mM Mg2+, 2 mM Ca2+; read by MALDI-TOF-MS of the intact protein; both purified

Chains of the proteins cited; added tags and fusions are not shown.
UniProt O75838: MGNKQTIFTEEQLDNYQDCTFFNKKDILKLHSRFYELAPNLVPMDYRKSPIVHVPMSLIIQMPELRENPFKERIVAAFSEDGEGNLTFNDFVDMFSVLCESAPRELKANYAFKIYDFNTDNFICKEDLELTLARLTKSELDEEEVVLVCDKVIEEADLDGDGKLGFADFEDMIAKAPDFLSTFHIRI

| Binder | binding [1] | binding [2] | binding [3] |
| --- | --- | --- | --- |
| KEFWGLHAKPRLKLMF (N-terminal acetylated; C-terminal amidated) [α7B_Scrb peptide, same amino acid content as α7B_M but randomized sequence] | binds weakly | binds weakly | binds weakly |
| LAADGHPELGPDGHPGPGTA (N-terminal acetylated) [α7B_C peptide, C-terminal region of the cytoplasmic domain of α7B integrin] | no binding (tested: 7.5 µM) | no binding (tested: 30 µM) | – |
